Experiments:
[1] = general procedure: peptide synthesis; chloromethylated polystyrene resin; DIC; conditions: 220 nm
[2] = general procedure: peptide synthesis; chloromethylated polystyrene; DIC; conditions: whole synthesis, by HPLC analysis in the mixture, scale 1.3 mmoles eq.

Substance	crude HPLC purity ([1]; whole synthesis, isocratic HPLC)	crude mass [2]	final purity (method not given) ([1]; oxidative folding step, HPLC, VYDAC C18, isocratic 26% CH3CN/0.1% TFA)
H-D-β-Nal-Cys-(Acm)-Tyr-D-Trp-Lys-Val-Cys(Acm)-Thr-NH2	96%	870 mg	–
H-D-β-Nal-[Cys-Tyr-D-Trp-Lys-Val-Cys]-Thr-NH2	–	–	99%

Reference: patent US20150284424 (published 2015)
